Experimental data published in doi:10.1101/2022.05.10.491418.
These are yes or no findings as the source states them, for the method shown. Binding seen in cells or lysates may run through a third protein. Some binding calls cover weakened binding; strength is not graded here. For some assays here: Tags and fused reporters may be left off the sequences shown. Each block holds one binder with its values, some of them ahead of it.

Key:
[1] = biological target: CHS3_Col-0 (clade 1), wild type, HF-tagged (Arabidopsis thaliana) (UniProt Q9FKN7); assay: co-IP
[2] = biological target: T1, CHS3_Col-0 (clade 1), wild type, HF-tagged (Arabidopsis thaliana), Q9FKN7; assay: co-IP; settings: remark: other sources report otherwise
T1 chain: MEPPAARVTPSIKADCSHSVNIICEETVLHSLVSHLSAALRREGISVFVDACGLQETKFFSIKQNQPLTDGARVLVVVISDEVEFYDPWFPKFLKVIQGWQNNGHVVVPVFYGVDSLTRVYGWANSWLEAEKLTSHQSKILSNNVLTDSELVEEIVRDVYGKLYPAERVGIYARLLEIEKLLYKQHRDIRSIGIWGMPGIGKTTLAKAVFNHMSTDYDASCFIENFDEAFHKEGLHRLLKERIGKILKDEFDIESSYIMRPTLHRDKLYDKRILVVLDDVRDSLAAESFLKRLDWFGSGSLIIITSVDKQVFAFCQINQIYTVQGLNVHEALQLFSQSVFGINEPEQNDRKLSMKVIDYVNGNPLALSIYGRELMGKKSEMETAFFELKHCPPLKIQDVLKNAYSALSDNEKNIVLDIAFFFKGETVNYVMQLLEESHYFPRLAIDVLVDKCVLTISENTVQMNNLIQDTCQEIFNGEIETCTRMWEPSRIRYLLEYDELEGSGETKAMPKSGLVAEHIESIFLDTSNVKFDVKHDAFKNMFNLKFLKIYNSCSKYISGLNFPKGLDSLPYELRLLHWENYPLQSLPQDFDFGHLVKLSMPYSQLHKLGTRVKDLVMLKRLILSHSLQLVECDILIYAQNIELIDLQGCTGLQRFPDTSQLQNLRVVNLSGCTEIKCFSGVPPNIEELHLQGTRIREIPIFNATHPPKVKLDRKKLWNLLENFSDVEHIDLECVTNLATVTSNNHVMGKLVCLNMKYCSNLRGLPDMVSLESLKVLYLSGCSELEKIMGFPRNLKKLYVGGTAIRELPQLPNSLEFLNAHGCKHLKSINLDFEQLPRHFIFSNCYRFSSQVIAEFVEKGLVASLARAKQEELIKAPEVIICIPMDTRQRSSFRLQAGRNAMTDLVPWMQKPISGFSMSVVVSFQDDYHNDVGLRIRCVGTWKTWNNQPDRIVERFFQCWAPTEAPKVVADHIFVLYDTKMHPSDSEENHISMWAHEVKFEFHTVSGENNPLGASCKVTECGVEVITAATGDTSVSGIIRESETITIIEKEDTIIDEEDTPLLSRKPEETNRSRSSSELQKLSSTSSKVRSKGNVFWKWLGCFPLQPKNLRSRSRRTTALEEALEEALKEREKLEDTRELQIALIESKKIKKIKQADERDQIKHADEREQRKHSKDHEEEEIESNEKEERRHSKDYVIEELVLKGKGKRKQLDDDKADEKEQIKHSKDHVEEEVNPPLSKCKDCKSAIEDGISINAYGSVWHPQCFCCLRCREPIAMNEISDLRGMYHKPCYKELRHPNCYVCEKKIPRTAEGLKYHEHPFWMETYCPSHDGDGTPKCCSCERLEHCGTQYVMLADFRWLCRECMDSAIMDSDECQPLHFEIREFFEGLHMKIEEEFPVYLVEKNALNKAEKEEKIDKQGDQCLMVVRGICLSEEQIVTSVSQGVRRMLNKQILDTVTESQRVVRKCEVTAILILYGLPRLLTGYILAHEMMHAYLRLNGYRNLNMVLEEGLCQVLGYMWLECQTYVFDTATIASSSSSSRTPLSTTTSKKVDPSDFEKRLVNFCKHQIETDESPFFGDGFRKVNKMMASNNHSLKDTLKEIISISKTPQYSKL

binding [1]: binds
B1: BKK1 (BAK1-LIKE 1), Col-0 (receptor, UniProt Q9SKG5 34-620)
chain: DALTQLKNSLSSGDPANNVLQSWDATLVTPCTWFHVTCNPENKVTRVDLGNAKLSGKLVPELGQLLNLQYLELYSNNITGEIPEELGDLVELVSLDLYANSISGPIPSSLGKLGKLRFLRLNNNSLSGEIPMTLTSVQLQVLDISNNRLSGDIPVNGSFSLFTPISFANNSLTDLPEPPPTSTSPTPPPPSGGQMTAAIAGGVAAGAALLFAVPAIAFAWWLRRKPQDHFFDVPAEEDPEVHLGQLKRFTLRELLVATDNFSNKNVLGRGGFGKVYKGRLADGNLVAVKRLKEERTKGGELQFQTEVEMISMAVHRNLLRLRGFCMTPTERLLVYPYMANGSVASCLRERPEGNPALDWPKRKHIALGSARGLAYLHDHCDQKIIHRDVKAANILLDEEFEAVVGDFGLAKLMNYNDSHVTTAVRGTIGHIAPEYLSTGKSSEKTDVFGYGVMLLELITGQKAFDLARLANDDDIMLLDWVKEVLKEKKLESLVDAELEGKYVETEVEQLIQMALLCTQSSAMERPKMSEVVRMLEGDGLAERWEEWQKEEMPIHDFNYQAYPHAGTDWLIPYSNSLIENDYPSGPR

binding [2]: binds
B2: BAK1 (BRI1-ASSOCIATED RECEPTOR KINASE), Col-0, Q94F62 26-615 (receptor)
chain: NAEGDALSALKNSLADPNKVLQSWDATLVTPCTWFHVTCNSDNSVTRVDLGNANLSGQLVMQLGQLPNLQYLELYSNNITGTIPEQLGNLTELVSLDLYLNNLSGPIPSTLGRLKKLRFLRLNNNSLSGEIPRSLTAVLTLQVLDLSNNPLTGDIPVNGSFSLFTPISFANTKLTPLPASPPPPISPTPPSPAGSNRITGAIAGGVAAGAALLFAVPAIALAWWRRKKPQDHFFDVPAEEDPEVHLGQLKRFSLRELQVASDNFSNKNILGRGGFGKVYKGRLADGTLVAVKRLKEERTQGGELQFQTEVEMISMAVHRNLLRLRGFCMTPTERLLVYPYMANGSVASCLRERPESQPPLDWPKRQRIALGSARGLAYLHDHCDPKIIHRDVKAANILLDEEFEAVVGDFGLAKLMDYKDTHVTTAVRGTIGHIAPEYLSTGKSSEKTDVFGYGVMLLELITGQRAFDLARLANDDDVMLLDWVKGLLKEKKLEALVDVDLQGNYKDEEVEQLIQVALLCTQSSPMERPKMSEVVRMLEGDGLAERWEEWQKEEMFRQDFNYPTHHPAVSGWIIGDSTSQIENEYPSGPR
